{
  "source": "paper PMC4002474",
  "about": "“Secretoglobin 1A1 and 1A1A Differentially Regulate Neutrophil Reactive Oxygen Species Production, Phagocytosis and Extracellular Trap Formation” (PLoS ONE, 2014)",
  "binders": {"B1": {"name": "equine recombinant SCGB 1A1 (secretoglobin family 1A member 1) (natural protein, horse (E. caballus), UniProt Q8MKG2 22-91, looked up)", "chain": "EICQSFADIIQGLFLGTPASFEAAVEPFKPDADMKAATTQLKTLVDFLPKNTKDSILKLMDKIAKSPLCA", "notes": "SCGB 1A1 of the horse (E. caballus), mature protein without the signal peptide, cDNA from equine lung, 100% identical to NCBI JQ906260.1; Cloned in pMAL-c5X, said to add no vector-derived residues after Factor Xa cleavage; Disulfide-dependent homodimer; also called club (Clara) cell secretory protein; CCSP; source: E. coli BL21 (NEB Express), purified (amylose column, Factor Xa, FPLC SuperDex …)"}},
  "molecular_target": "equine recombinant SCGB 1A1 (secretoglobin family 1A member 1) (horse (E. caballus)) (UniProt Q8MKG2)",
  "assay": "reducing SDS-PAGE; purified recombinant protein run on reducing and denaturing SDS-PAGE; both purified",
  "note": "No constants are given. Whether binding was seen depends on the method and setting.",
  "data": [
    {"binder": "B1", "values": [
      {"measurement": "binding", "value": "no binding (condition: reducing and denaturing conditions)"}
    ]}
  ]
}
